# Results: paper PMC5742583, “A Functional Analysis on the Interspecies Interaction between Mouse LFA-1 and Human Intercellular Adhesion Molecule-1 at the Cell Level” (Frontiers in Immunology, 2017)
# Amino acid sequences for entries named in this document (tags omitted). A change or cut given only in a name is not applied to a line headed by its entry. Residues count along the entry.
# UniProt P24063: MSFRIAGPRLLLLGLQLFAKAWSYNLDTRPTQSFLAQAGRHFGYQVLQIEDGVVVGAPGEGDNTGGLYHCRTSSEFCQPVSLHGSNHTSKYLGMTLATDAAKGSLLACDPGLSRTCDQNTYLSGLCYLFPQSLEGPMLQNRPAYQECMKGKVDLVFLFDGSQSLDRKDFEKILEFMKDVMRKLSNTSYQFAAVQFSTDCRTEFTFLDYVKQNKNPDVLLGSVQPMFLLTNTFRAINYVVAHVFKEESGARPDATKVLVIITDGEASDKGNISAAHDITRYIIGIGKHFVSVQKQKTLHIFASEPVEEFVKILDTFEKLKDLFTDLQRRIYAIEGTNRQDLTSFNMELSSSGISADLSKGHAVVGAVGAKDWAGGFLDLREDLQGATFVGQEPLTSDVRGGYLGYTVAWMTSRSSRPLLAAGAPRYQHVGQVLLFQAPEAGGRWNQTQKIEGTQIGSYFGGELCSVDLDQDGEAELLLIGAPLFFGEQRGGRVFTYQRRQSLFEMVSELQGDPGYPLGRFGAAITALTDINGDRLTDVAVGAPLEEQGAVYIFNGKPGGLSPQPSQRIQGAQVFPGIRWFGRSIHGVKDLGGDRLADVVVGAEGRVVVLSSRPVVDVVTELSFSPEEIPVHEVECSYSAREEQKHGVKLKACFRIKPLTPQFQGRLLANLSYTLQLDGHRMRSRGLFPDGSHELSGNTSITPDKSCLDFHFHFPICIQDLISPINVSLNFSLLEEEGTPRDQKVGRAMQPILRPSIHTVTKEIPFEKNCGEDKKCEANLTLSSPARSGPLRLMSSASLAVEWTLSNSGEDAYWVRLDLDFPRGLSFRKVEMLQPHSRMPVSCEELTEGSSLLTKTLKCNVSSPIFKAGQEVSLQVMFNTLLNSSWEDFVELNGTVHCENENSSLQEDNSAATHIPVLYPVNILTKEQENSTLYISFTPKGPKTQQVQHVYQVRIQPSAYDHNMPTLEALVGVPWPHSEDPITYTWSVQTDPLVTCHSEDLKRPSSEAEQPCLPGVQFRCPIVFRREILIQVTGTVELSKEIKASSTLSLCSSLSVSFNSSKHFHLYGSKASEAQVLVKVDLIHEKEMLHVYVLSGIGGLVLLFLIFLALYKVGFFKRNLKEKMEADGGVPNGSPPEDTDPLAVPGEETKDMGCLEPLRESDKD
# UniProt P11835: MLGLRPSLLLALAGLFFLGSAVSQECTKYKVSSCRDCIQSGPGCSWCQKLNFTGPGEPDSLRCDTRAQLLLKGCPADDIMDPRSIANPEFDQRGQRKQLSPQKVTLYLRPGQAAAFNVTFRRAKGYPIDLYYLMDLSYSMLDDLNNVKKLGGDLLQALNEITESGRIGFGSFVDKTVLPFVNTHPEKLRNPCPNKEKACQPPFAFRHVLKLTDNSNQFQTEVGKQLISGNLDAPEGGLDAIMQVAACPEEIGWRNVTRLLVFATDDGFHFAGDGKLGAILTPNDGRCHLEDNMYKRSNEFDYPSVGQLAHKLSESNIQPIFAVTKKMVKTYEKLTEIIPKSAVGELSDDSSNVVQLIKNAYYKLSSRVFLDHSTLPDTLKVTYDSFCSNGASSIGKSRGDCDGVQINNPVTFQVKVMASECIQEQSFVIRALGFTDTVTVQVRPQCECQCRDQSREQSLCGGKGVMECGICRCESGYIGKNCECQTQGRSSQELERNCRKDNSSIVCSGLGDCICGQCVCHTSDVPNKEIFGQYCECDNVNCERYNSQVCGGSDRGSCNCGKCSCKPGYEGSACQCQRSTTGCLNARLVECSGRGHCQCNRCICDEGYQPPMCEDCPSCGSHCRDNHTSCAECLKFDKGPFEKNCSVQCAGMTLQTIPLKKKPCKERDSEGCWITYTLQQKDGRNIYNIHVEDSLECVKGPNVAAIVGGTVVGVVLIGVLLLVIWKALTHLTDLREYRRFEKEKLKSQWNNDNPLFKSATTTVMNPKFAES
# UniProt P05362, residues 28-480: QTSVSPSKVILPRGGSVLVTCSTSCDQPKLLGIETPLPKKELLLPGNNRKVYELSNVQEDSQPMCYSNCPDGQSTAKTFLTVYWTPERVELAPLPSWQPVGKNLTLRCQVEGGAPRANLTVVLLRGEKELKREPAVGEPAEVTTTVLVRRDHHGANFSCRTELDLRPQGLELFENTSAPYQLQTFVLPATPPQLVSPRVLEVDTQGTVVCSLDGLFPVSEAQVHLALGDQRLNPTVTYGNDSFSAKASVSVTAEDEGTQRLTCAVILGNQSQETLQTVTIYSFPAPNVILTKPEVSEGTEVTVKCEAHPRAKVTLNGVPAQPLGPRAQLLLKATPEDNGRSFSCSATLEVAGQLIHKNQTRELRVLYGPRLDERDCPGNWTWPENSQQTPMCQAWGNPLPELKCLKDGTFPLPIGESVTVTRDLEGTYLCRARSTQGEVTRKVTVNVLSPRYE
# UniProt P13597, residues 28-485: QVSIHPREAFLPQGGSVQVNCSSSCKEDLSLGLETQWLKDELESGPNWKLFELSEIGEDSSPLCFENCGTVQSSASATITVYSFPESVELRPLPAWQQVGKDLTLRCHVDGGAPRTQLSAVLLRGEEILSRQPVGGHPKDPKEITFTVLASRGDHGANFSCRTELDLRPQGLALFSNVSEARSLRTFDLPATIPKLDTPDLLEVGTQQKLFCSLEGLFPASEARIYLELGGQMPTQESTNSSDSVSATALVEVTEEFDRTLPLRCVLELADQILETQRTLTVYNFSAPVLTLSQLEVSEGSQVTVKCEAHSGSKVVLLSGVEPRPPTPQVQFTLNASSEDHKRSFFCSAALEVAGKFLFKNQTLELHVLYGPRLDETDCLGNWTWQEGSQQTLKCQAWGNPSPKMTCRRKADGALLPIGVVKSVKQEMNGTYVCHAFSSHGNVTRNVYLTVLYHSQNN
# These are yes or no findings as the source states them, for the method shown. Some results given as binding are weak or reduced against the parent protein; the word gives no strength.
# Target: mouse LFA-1 (CD11a/CD18) on mouse cells (mouse (endogenous in EL4)) (UniProt P24063+P11835)
# Assay: flow cytometry on cells; EL4 cells incubated with the Fc chimeras at 4°C for 45 min, washed with FACS buffer, detected with PE-conjugated goat anti-human IgG (Fcγ fragment specific); as control cells were pretreated with an antibody against mouse CD11a; only the binder purified
row,binding,Substance
1,binds,human Fc chimera containing the five extracellular domains of ICAM-1 (human D1D5Fc) (from UniProt P05362 28-480) (Fc fusion)
2,binds,mouse Fc chimera containing the five extracellular domains of ICAM-1 (mouse D1D5Fc) (from UniProt P13597 28-485) (Fc fusion)
